# PubChem BioAssay AID743454, Peter MacCallum Cancer Centre | 2014
# Assay: 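Genes whose loss kills vorinostat-resistant colon cancer cells under vorinostat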 (primary screen)
# System: human HCT116-VR colon cancer cells, selected for vorinostat resistance
# Reagent: siRNA pool against human genes, 40 nM siRNA pool
# Duration: vorinostat for 24 h, read-out about 72 h after transfection
# Challenge: vorinostat at 2.5 µM final
# Detection: 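Two measures, CellTiter-Fluor viability and luminescent caspase 3/7 activity, each as fold change against same-plate mock wells, mean of duplicates, then screen-wide robust z-score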
# Direction: viability robust z-score: higher = more viable cells than screen typical; caspase robust z-score: higher = more caspase 3/7 activity than screen typical
# Hit rule: 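Hits are knock-downs in viability class RV1/RV2 or caspase class CA1/CA2, excluding ones that killed cells in the no-drug cell-count arm; hits then retested with single siRNAs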
# Shown is an unselected part of about 18,000 reagents. Over the whole deposit, 450 (2.5%) were called active. 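Single biological run; no consistent viability z cut-off exists, so the class columns, not z-scores, define the calls.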 Unmarked entries are inactive. No sequences are given here.
gene symbol,viability hit class,caspase hit class,viability robust z-score,caspase robust z-score
HMCN2,no change,no change,-0.72,-0.36
NOP58,RV2 (reduced viability) (active),no change,-3.37,-0.44
NPLOC4,no change,no change,0.57,-0.1
SLC5A5,no change,no change,-1.56,1.9
RNPEPL1,no change,no change,0.48,0.68
TEKT4,no change,no change,-0.11,3.57
TOX,no change,no change,-0.28,0.3
PRDM14,no change,no change,0.4,0.28
PML,no change,no change,-0.21,-0.37
DGCR8,no change,no change,-0.62,-0.13
ARL6IP4,no change,no change,0.22,0.48
NIPAL1,no change,no change,-0.67,-0.6
PATJ,no change,no change,1.81,-0.27
SEC61A2,no change,no change,-0.9,-0.08
TMEM63A,no change,no change,1.01,0.02
TSPAN9,no change,no change,0.67,2.77
GPM6A,no change,no change,0.13,-0.45
FAM124A,no change,no change,-0.68,0.06
LAGE3,no change,no change,0.96,-0.24
RHAG,no change,no change,-0.78,4.37
TMEM38A,no change,no change,-0.09,0.41
CEP83,no change,no change,0.15,2.17
CPSF2,no change,no change,1.09,1.01
PTBP3,no change,no change,0.2,-0.93
SCO2,no change,no change,0.8,-0.39
LAG3,no change (active),CA2 (caspase activation),-1.44,5.81
THUMPD3,no change,no change,-0.04,-1
FIGLA,no change,no change,0.88,-0.6
BTN3A2,no change,no change,1.28,-1.03
HMGB3,no change,no change,1.5,-0.46
ALS2CL,no change,no change,-0.27,1.68
HOXB3,no change,no change,0.56,3.6
NUP107,no change,no change,-1.4,1.66
RNF8,no change,no change,-0.19,-0.19
MARCHF1,no change,no change,0.63,0.34
PANK4,no change,no change,-2.69,-0.57
IL31RA,no change,no change,0.51,-0.02
GCNA,no change,no change,1.25,-0.55
CNR2,no change,no change,-0.49,-1.22
SLPI,no change,no change,0.64,-0.69
RASL12,no change,no change,0.18,0.26
ZNF79,no change,no change,0.44,-0.37
SEH1L,no change,no change,-1.43,-0.5
CHD6,no change,no change,1.79,-0.32
PRND,no change,no change,-1.4,0.36
GEM,no change,no change,0.48,0.32
MAPK8IP1,no change,no change,0.18,-0.04
GPATCH11,no change,no change,-0.63,-0.38
KANSL1,no change,no change,-1.01,1.25
SPINT2,no change (active),CA1 (caspase activation),-1.36,6.08
PHKG2,no change,no change,0.26,-0.61
MXRA5,no change,no change,0.81,0.29
HSBP1,no change,no change,-0.32,1.87
LYLDT1,no change,no change,0.12,-0.18
TUT4,no change,no change,0.62,-0.4
KCNA1,no change,no change,1.27,-0.05
CAAP1,no change,no change,0.34,-0.44

Just “viability robust z-score” (7 entries from above):
CEP83	0.15
CPSF2	1.09
PTBP3	0.2
SCO2	0.8
LAG3	-1.44 (active)
THUMPD3	-0.04
FIGLA	0.88
